Some of the results follow.

Chains of the proteins cited; added tags and fusions are not shown. Lines headed by an entry give the natural chain unless they say otherwise; changes in a name come on top.
UniProt P41252: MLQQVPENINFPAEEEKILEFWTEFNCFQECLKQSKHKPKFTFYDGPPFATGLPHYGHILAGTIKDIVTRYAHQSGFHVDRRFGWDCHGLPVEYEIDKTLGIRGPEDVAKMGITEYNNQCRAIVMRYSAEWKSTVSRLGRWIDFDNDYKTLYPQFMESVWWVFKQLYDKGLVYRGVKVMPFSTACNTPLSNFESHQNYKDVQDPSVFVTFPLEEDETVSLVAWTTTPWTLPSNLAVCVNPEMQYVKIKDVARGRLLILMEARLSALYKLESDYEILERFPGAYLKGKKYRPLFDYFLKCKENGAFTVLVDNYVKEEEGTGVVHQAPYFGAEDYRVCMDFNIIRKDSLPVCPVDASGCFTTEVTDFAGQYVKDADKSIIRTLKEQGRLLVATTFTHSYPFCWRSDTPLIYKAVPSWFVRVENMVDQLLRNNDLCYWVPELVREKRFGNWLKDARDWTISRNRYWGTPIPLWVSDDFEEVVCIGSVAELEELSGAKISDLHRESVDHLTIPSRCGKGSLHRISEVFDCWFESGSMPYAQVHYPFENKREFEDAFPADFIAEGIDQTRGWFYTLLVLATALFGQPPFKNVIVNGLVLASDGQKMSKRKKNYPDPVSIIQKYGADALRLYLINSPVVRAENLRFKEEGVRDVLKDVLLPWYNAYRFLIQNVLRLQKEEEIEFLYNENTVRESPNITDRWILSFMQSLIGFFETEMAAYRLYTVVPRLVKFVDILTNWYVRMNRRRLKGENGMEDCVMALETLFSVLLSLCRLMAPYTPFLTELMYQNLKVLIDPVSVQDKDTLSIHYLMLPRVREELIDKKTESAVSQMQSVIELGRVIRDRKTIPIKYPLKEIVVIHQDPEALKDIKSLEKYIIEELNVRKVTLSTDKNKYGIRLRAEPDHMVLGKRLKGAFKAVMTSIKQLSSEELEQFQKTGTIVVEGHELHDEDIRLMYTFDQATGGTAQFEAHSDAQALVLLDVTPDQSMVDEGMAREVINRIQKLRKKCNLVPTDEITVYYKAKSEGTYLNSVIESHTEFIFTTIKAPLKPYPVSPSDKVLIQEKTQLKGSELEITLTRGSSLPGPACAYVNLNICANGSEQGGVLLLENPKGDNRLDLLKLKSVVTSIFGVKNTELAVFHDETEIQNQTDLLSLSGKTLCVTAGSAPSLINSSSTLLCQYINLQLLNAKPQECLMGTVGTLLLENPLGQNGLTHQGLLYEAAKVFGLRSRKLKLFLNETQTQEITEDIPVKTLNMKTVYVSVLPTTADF
UniProt Q9BXK1: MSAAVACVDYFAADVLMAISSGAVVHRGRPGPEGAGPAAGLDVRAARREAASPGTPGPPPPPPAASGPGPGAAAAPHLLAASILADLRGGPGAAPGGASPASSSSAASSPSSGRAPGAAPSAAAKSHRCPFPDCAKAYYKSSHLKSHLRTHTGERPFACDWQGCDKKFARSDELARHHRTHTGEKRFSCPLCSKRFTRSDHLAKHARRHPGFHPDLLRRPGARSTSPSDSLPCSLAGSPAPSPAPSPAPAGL
UniProt P18065: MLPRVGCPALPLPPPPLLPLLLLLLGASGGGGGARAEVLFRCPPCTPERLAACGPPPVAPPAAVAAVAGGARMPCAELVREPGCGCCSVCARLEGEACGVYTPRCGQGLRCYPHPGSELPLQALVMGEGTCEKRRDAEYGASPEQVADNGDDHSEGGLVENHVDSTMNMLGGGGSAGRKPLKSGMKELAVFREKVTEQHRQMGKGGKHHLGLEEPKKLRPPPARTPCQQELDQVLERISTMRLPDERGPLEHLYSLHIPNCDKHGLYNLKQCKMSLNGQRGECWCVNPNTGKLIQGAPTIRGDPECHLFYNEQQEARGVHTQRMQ
UniProt Q58WW2: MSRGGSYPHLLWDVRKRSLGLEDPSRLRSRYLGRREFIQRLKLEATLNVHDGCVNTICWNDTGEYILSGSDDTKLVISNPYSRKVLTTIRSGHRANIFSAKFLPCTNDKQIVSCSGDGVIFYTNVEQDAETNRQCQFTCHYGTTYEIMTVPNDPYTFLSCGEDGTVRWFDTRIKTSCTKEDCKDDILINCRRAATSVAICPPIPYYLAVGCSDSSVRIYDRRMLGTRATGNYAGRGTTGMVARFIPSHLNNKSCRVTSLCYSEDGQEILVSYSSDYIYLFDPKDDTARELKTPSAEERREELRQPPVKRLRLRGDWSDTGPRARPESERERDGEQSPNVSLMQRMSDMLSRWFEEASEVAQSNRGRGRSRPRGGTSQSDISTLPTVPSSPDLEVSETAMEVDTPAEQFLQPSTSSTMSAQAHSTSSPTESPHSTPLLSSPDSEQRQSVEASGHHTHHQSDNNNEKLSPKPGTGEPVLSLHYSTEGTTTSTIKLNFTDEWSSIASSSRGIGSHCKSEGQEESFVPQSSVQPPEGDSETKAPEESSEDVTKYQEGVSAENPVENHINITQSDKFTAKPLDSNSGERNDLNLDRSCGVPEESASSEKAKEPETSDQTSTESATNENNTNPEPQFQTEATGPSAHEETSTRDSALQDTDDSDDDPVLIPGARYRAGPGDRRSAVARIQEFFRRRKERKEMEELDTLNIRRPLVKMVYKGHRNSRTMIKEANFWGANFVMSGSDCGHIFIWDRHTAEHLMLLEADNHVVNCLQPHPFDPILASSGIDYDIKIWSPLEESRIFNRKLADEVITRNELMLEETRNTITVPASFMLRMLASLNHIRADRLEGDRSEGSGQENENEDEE
UniProt Q86VI3: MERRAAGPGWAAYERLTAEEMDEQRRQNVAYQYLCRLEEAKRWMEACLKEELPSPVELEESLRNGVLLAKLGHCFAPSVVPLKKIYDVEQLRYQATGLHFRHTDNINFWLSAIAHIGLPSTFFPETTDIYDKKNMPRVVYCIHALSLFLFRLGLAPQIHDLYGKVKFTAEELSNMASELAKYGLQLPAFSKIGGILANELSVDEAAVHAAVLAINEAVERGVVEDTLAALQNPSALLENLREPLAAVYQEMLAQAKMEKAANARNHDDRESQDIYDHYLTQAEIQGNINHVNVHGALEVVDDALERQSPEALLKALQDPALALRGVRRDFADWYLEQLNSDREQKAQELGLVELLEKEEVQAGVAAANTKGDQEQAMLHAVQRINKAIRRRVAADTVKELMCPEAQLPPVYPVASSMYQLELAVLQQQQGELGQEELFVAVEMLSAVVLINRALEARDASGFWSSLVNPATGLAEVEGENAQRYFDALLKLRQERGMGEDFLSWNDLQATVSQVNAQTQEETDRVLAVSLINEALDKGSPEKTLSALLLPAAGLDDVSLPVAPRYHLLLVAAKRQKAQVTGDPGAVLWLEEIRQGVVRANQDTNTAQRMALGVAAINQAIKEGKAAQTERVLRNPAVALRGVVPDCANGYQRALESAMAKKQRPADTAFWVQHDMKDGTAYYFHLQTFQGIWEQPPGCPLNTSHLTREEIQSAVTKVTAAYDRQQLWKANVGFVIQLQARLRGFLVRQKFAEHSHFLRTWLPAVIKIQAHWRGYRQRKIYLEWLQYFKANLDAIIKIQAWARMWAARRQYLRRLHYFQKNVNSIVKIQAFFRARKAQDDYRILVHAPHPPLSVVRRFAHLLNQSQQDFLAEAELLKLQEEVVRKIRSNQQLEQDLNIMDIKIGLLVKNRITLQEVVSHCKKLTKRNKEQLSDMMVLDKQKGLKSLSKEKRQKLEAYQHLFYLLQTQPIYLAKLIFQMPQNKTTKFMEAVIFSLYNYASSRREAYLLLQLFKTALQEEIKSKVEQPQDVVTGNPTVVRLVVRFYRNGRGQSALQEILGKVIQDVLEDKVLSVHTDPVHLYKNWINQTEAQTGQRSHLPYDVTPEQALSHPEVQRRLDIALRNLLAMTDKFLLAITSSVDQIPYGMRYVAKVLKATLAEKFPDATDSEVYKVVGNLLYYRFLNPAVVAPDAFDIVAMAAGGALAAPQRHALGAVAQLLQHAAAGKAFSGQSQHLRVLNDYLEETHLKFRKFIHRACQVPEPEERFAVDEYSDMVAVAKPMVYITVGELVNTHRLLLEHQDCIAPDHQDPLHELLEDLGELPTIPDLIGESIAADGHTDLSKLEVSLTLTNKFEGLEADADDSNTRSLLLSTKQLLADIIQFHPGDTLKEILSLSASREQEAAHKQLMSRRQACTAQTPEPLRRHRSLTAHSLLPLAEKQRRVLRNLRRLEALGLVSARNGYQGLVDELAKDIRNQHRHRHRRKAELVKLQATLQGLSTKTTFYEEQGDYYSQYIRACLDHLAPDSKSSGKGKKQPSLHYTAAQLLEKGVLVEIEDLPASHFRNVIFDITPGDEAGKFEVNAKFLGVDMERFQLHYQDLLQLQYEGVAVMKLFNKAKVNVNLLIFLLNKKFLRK
UniProt O76095: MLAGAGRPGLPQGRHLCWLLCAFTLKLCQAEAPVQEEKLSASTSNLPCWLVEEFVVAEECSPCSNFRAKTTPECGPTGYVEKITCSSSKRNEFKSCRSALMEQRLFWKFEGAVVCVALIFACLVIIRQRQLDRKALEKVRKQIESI
UniProt Q9C0E8: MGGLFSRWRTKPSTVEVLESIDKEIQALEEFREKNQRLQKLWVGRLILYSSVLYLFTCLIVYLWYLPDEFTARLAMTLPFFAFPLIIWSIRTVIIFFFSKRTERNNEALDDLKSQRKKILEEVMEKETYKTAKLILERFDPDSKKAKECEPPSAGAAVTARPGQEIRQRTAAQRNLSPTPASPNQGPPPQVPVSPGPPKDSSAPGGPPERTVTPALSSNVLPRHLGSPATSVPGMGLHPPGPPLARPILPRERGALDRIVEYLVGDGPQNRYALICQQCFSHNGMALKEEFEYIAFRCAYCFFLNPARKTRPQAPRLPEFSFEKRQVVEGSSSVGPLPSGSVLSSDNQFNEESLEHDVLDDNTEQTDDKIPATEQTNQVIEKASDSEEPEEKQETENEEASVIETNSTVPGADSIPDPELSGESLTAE
UniProt Q8IZA0: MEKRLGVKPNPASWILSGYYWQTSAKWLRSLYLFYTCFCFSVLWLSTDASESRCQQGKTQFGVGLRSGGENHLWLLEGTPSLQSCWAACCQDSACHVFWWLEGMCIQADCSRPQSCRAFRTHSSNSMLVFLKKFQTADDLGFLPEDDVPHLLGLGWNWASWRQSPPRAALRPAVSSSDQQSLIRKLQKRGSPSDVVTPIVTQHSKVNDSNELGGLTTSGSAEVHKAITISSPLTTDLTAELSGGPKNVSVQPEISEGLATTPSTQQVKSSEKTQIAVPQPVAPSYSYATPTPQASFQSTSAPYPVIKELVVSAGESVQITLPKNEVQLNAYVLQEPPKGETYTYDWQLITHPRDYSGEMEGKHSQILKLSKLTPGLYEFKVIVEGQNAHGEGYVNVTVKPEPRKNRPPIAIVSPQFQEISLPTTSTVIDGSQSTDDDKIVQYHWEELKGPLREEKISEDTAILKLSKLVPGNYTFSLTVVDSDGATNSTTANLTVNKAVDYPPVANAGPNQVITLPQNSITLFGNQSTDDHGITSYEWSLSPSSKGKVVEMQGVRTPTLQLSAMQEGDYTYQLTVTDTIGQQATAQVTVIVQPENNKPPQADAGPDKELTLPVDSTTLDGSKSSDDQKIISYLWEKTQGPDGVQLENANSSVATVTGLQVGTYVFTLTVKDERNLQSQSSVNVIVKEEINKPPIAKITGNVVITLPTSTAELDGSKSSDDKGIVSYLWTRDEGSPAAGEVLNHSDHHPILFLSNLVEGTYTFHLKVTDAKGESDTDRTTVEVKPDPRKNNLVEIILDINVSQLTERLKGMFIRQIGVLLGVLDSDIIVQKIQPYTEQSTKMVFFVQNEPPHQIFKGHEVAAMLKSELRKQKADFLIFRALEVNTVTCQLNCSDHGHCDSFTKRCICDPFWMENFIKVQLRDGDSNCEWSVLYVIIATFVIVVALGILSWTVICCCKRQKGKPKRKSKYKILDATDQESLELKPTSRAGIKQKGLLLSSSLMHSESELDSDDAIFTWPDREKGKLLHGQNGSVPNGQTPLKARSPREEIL
UniProt Q8IY47: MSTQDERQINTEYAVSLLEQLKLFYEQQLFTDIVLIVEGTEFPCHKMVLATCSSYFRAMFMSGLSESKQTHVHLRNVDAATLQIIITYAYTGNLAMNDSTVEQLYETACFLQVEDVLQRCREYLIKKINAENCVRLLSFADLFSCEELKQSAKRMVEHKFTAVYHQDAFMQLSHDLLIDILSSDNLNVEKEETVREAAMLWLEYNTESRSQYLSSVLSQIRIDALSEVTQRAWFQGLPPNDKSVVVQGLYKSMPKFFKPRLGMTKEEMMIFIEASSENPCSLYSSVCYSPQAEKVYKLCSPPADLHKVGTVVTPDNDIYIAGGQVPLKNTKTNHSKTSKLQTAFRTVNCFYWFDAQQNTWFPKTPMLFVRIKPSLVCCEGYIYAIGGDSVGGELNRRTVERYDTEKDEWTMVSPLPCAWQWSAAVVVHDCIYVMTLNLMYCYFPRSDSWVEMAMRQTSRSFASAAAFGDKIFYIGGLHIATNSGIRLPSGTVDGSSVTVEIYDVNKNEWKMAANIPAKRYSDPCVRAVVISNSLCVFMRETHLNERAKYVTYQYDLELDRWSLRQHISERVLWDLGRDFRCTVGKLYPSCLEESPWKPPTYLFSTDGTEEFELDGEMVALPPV

Compound in this experiment: COc1ccc(Cn2ccc3cc(C)c(C(=O)NO)cc32)cc1
Put plainly: dose-dependent thermal stabilisation call (2D-TPP, DLPTP, 10% FDR) (binary (1 = stabilised)); higher = stabilised by the compound. To be noted: system: HL-60 intact cells; concentration range 0.04-10 µM. How it is done: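 2D thermal proteome profiling in intact HL-60 cells treated with BRD-3811 (0, 0.04, 0.29, 2, 10 uM) for 90 min at 37 C, then heated 3 min at one of 12 temperatures (42-63.9 C). Soluble protein was quantified by TMT10 MS. The value is the DLPTP call of the paper: dose-dependent thermal stabilisation over all temperatures at 10% FDR (F-test of a dose-response against a flat model); one experiment, one call per tested protein.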
Take KDSR (UniProt Q06136): the “dose-dependent thermal stabilisation call” value is inactive: 0.

With ITPR3 (UniProt Q14573), the “dose-dependent thermal stabilisation call” value is inactive: 0.

Turning to IKBKAP (UniProt O95163), the “dose-dependent thermal stabilisation call” value is inactive: 0.

For the target KIAA0841 (UniProt O94927), the “dose-dependent thermal stabilisation call” value was inactive: 0.

In the case of JMJD1A (UniProt Q9Y4C1), the “dose-dependent thermal stabilisation call” value is inactive: 0.

Turning to KIAA1797 (UniProt Q5VW36), the “dose-dependent thermal stabilisation call” value is inactive: 0.

For the target IFT122 (UniProt Q9HBG6), the “dose-dependent thermal stabilisation call” value was inactive: 0.

Regarding IKBKG (UniProt Q9Y6K9), the “dose-dependent thermal stabilisation call” value was inactive: 0.

For the target ITPA (UniProt Q9BY32), the “dose-dependent thermal stabilisation call” value was inactive: 0.

For the target IPO5 (UniProt O00410), the “dose-dependent thermal stabilisation call” value was inactive: 0.

With IKBKB (UniProt O14920), the “dose-dependent thermal stabilisation call” value is inactive: 0.

As to IARS (UniProt P41252), the “dose-dependent thermal stabilisation call” value was inactive: 0.

KLF16 (UniProt Q9BXK1): the “dose-dependent thermal stabilisation call” value is inactive: 0.

In the case of IGFBP2 (UniProt P18065), the “dose-dependent thermal stabilisation call” value was inactive: 0.

In the case of INTS12 (UniProt Q96CB8), the “dose-dependent thermal stabilisation call” value was inactive: 0.

For IMMT (UniProt Q16891), the “dose-dependent thermal stabilisation call” value was inactive: 0.

With ISG15 (UniProt P05161), the “dose-dependent thermal stabilisation call” value is inactive: 0.

As to HYPK (UniProt Q9NX55), the “dose-dependent thermal stabilisation call” value was inactive: 0.

With KLHDC4 (UniProt Q8TBB5), the “dose-dependent thermal stabilisation call” value is inactive: 0.

Regarding ILVBL (UniProt A1L0T0), the “dose-dependent thermal stabilisation call” value is inactive: 0.

As for KDELC2 (UniProt Q7Z4H8), the “dose-dependent thermal stabilisation call” value was inactive: 0.

On to IDH3A (UniProt P50213), for which the “dose-dependent thermal stabilisation call” value was inactive: 0.

As for IDH3G (UniProt P51553), the “dose-dependent thermal stabilisation call” value is inactive: 0.

With IDI1 (UniProt Q13907), the “dose-dependent thermal stabilisation call” value is inactive: 0.

IDH2 (UniProt P48735): the “dose-dependent thermal stabilisation call” value is inactive: 0.

Turning to KBTBD8 (UniProt Q8NFY9), the “dose-dependent thermal stabilisation call” value is inactive: 0.

Turning to KIAA0430 (UniProt Q9Y4F3), the “dose-dependent thermal stabilisation call” value was inactive: 0.

Turning to IQWD1 (UniProt Q58WW2), the “dose-dependent thermal stabilisation call” value was inactive: 0.

Take IQGAP3 (UniProt Q86VI3): the “dose-dependent thermal stabilisation call” value was inactive: 0.

In the case of KLC2 (UniProt Q9H0B6), the “dose-dependent thermal stabilisation call” value is inactive: 0.

Take ITGA2 (UniProt P17301): the “dose-dependent thermal stabilisation call” value is inactive: 0.

For KIAA0999 (UniProt Q9Y2K2), the “dose-dependent thermal stabilisation call” value was inactive: 0.

JMJD5 (UniProt Q8N371): the “dose-dependent thermal stabilisation call” value is inactive: 0.

On to JTB (UniProt O76095), for which the “dose-dependent thermal stabilisation call” value is inactive: 0.

In the case of HTATSF1 (UniProt O43719), the “dose-dependent thermal stabilisation call” value was inactive: 0.

With KIAA1715 (UniProt Q9C0E8), the “dose-dependent thermal stabilisation call” value was inactive: 0.

For KIAA0319L (UniProt Q8IZA0), the “dose-dependent thermal stabilisation call” value is inactive: 0.

Take KBTBD2 (UniProt Q8IY47): the “dose-dependent thermal stabilisation call” value was inactive: 0.

With ICT1 (UniProt Q14197), the “dose-dependent thermal stabilisation call” value was inactive: 0.

In the case of IRAK1 (UniProt P51617), the “dose-dependent thermal stabilisation call” value was inactive: 0.
